# Results from patent publication US6908897B2 (Aventis Pharma Deutschland GmbH, priority 1999, dated 2005).
# Non-standard residues stand in square brackets, D forms with d. No end group written: not given here. Sar = CNCC(=O)O
# Experiment: peptide synthesis
# Details: for final HPLC purity: RP-HPLC
# [1] = conjugation step, several disulfide bridges, sequence written open
substance,measurement,setting,value
A1-Msc-DOI-Gly-Phe-Phe-Glu-NH2,step yield,coupling step,38.6%
same,final HPLC purity,coupling step,95.7%
GFF[dA]-NH2,isolated yield,whole synthesis,61.6%
same,final HPLC purity,whole synthesis,99.1%
A1-Msc-DOI-Gly-Phe-Phe-D-Ala-NH2,step yield,coupling step,53.9%
same,final HPLC purity,coupling step,95.1%
GFF[Sar]-NH2,isolated yield,whole synthesis,82.6%
same,final HPLC purity,whole synthesis,98.5%
"B1,B1′-Sub-DOI-Gly-Phe-Phe-Glu-NH2 dimer",final HPLC purity,[1],>99%
same,conjugation yield,[1],15.8%
Gly-Phe-Phe-Glu-NH2,isolated yield,whole synthesis,74.9%
same,final HPLC purity,whole synthesis,94.5%
"B1,B1′-Sub-DOI-Gly-Phe-Phe-D-Ala-NH2 dimer",final HPLC purity,[1],88.1%
same,conjugation yield,[1],11.9%
